Source: patent US6610747B2, “Phenoxybenzylamine derivatives as SSRIs” (Pfizer Inc., priority 2000, dated 2003)
Some entries share one result that the patent states for a list of compounds. At least one compound was matched to its structure with a doubt left.

Amino acid sequences for entries named in this document (tags omitted).
UniProt P31645, whole entry: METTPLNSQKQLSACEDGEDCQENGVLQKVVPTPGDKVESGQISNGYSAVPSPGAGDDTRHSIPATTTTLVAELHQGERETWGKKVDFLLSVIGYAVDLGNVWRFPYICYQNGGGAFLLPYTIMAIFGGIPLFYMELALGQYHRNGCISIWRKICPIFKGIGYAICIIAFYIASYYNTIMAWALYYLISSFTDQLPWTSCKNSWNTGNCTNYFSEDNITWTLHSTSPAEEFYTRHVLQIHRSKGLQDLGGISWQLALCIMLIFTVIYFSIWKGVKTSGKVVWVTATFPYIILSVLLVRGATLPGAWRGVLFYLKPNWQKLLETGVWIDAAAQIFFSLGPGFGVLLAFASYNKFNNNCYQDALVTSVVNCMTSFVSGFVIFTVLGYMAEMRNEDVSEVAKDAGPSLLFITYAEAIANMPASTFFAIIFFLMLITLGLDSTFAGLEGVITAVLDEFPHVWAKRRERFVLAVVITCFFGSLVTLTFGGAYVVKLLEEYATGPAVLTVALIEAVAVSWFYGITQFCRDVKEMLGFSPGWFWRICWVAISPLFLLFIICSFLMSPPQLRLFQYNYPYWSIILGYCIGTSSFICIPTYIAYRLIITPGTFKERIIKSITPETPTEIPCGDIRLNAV

Biological target: T1, human serotonin transporter (hSERT) (Homo sapiens, UniProt P31645)
T1 construct: expressed in transfected cells; host or cells: HEK-293
Experiment: Inhibition of 3H-serotonin uptake in HEK-293 cells stably transfected with the human serotonin transporter (SRI)
Assay type: cell-based
Settings: for IC50: HEK-293 cells expressing hSERT, 3H-5HT (50 nM), 5 min incubation, room temperature, read-out: serotonin re-uptake inhibition (SRI) IC50; for fold more potent in the inhibition of serotonin re-uptake than in the inhibition of dopamine re-uptake or noradrenaline re-uptake: selectivity hSERT versus hDAT or hNET uptake assays (HEK-293 cells); for fold more potent in the inhibition of serotonin re-uptake than in the inhibition of dopamine re-uptake and noradrenaline re-uptake: selectivity hSERT versus both hDAT and hNET uptake assays (HEK-293 cells)
Protocol: A number of compounds were tested for biological activity by their ability to inhibit the uptake of serotonin by human serotonin transporters as follows.
Human embryonic kidney cells (HEK-293) stably transfected with either the human serotonin transporter (hSERT), noradrenaline transporter (hNET) or dopamine transporter (hDAT) were cultured under standard cell culture techniques (cells were grown at 37° C. and 5% CO2 in DMEM-culture media (supplemented with 10% dialysed foetal calf serum (FCS), 2mM l-glutamine and 250 μg/ml geneticin)). Cells were harvested for the assay to yield a cell suspension of 750,000 cells/ml.
(i) Determination of Inhibitor Potency
All test compounds were dissolved in 100% DMSO and diluted down in assay buffer to give appropriate test concentrations. Assays were carried out in 96-well filter bottom plates. Cells (7500 cells/assay well) were pre-incubated in standard assay buffer containing either test compound, standard inhibitor or compound vehicle (1% DMSO) for 5 minutes. Reactions were started by addition of either ^3H-Serotonin, ^3H-Noradrenaline or ^3H-Dopamine substrates. All reactions were carried out at room temperature in a shaking incubator. Incubation times were 5 minutes for the hSERT and hDAT assays and 15 minutes for the hNET assay. Reactions were terminated by removal of the reaction mixture using a vacuum manifold followed by rapid washing with ice cold assay buffer. The quantity of ^3H-substrate incorporated into the cells was then quantified.
Assay plates were dried in a microwave oven, scintillation fluid added, and radioactivity measured.
(iii) Standard Assay Buffer Composition
Trizma hydrochloride (26 mM)
Note: The pH of the buffer was adjusted to 7.40 with 1M NaOH before addition of CaCl2 and pargyline.
(iv) Summary of Assay Parameters

CSc1ccc(Oc2ccc(CO)cc2CN(C)C)cc1C [Example 98]
IC50: ≤ 100 nM | fold more potent in the inhibition of serotonin re-uptake than in the inhibition of dopamine re-uptake or noradrenaline re-uptake: more than 10 fold

CSc1ccc(Oc2ccc(CNS(=O)(=O)C(F)(F)F)cc2CN(C)C)cc1C [Example 99]
IC50: ≤ 100 nM

CN(C)Cc1cc(C(N)=O)ccc1Oc1ccc2ncccc2c1 [Example 100, 3-[(dimethylamino)methyl]-4-(6-quinolinyloxy)benzamide]
fold more potent in the inhibition of serotonin re-uptake than in the inhibition of dopamine re-uptake and noradrenaline re-uptake: more than 100 fold

CSc1ccc(Oc2ccc(C(N)=O)cc2CN(C)C)cc1C [Example 101]
IC50: ≤ 100 nM

CNCc1cc(C(N)=O)ccc1Oc1ccc2ncccc2c1 [Example 102, 3-[(methylamino)methyl]-4-(6-quinolinyloxy)benzamide]
fold more potent in the inhibition of serotonin re-uptake than in the inhibition of dopamine re-uptake and noradrenaline re-uptake: more than 100 fold

CSc1cc(Oc2ccc(NS(C)(=O)=O)cc2CN)ccc1C [Example 109]
IC50: ≤ 100 nM | fold more potent in the inhibition of serotonin re-uptake than in the inhibition of dopamine re-uptake or noradrenaline re-uptake: more than 10 fold

CNCc1cc(NS(C)(=O)=O)ccc1Oc1ccc2c(c1)SCCO2 [Example 110, N-{4-(2,3-Dihydro-1,4-benzoxathiin-6-yloxy)-3-[(methylamino)methyl]phenyl}-methanesulfonamide]
IC50: ≤ 100 nM | fold more potent in the inhibition of serotonin re-uptake than in the inhibition of dopamine re-uptake or noradrenaline re-uptake: more than 10 fold

CNCc1cc(NS(C)(=O)=O)ccc1Oc1ccc(SC)c(F)c1 [Example 111]
IC50: ≤ 100 nM

CNCc1cc(NS(C)(=O)=O)ccc1Oc1ccc(SC)c(Cl)c1 [Example 112]
IC50: ≤ 100 nM

CNCc1cc(NS(C)(=O)=O)ccc1Oc1ccc(C)c(SC)c1 [Example 113]
IC50: ≤ 100 nM

CNCc1cc(NS(C)(=O)=O)ccc1Oc1ccc2c(c1)CCC2 [Example 114]
IC50: ≤ 100 nM | fold more potent in the inhibition of serotonin re-uptake than in the inhibition of dopamine re-uptake or noradrenaline re-uptake: more than 10 fold

CNCc1cc(NS(C)(=O)=O)ccc1Oc1ccc(SC)c(C)c1 [Example 115]
IC50: ≤ 100 nM

CNCc1cc(N(C)S(C)(=O)=O)ccc1Oc1ccc(SC)c(C)c1 [Example 116, N-methyl-N-{3-[(methylamino)methyl]-4-[3-methyl-4-(methylsulfanyl)phenoxy]-phenyl}methanesulfonamide]
fold more potent in the inhibition of serotonin re-uptake than in the inhibition of dopamine re-uptake and noradrenaline re-uptake: more than 100 fold

CNCc1cc(NS(C)(=O)=O)ccc1Oc1ccc2c(c1)OCCS2 [Example 118]
fold more potent in the inhibition of serotonin re-uptake than in the inhibition of dopamine re-uptake and noradrenaline re-uptake: more than 100 fold

CNCc1cc(NS(C)(=O)=O)ccc1Oc1ccc2c(c1)CCS2 [Example 119]
IC50: ≤ 100 nM | fold more potent in the inhibition of serotonin re-uptake than in the inhibition of dopamine re-uptake or noradrenaline re-uptake: more than 10 fold

CSc1ccc(Oc2ccc(NS(C)(=O)=O)cc2CN(C)C)cc1F [Example 120]
IC50: ≤ 100 nM

CN(C)Cc1cc(NS(C)(=O)=O)ccc1Oc1ccc2c(c1)OCCS2 [Example 124, N-{4-(2,3-dihydro-1,4-benzoxathiin-7-yloxy)-3-[(dimethylamino)methyl]phenyl}-methanesulfonamide]
fold more potent in the inhibition of serotonin re-uptake than in the inhibition of dopamine re-uptake and noradrenaline re-uptake: more than 100 fold

CSc1ccc(Oc2ccc(N(CCO)S(C)(=O)=O)cc2CN(C)C)cc1C [Example 125]
IC50: ≤ 100 nM

CSc1ccc(Oc2ccc(NS(C)(=O)=O)cc2CN(C)C)cc1C [Example 128, N-{3-[(Dimethylamino)methyl]-4-[3-methyl-4-(methylsulfanyl)phenoxy]-phenyl}methanesulfonamide]
IC50: ≤ 100 nM

CCS(=O)(=O)Nc1ccc(Oc2ccc(SC)c(C)c2)c(CN(C)C)c1 [Example 130]
IC50: ≤ 100 nM
